Measured values as given in doi:10.1101/2021.12.06.471409.
These are yes or no findings as the source states them, for the method shown. In cells and extracts the contact can be indirect. These calls come from enrichment with a bait or labelling near it, and not all partners need be listed.

By UniProt entry, the sequences of proteins in these tests, tags left out.
UniProt Q96S21: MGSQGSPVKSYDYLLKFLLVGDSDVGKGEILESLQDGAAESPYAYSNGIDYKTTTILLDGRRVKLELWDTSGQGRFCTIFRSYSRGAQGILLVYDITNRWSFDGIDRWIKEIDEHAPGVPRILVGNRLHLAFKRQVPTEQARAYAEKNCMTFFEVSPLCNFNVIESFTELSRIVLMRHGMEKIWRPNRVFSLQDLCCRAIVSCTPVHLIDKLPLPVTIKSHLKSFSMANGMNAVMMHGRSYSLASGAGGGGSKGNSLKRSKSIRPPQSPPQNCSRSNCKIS
UniProt P67775: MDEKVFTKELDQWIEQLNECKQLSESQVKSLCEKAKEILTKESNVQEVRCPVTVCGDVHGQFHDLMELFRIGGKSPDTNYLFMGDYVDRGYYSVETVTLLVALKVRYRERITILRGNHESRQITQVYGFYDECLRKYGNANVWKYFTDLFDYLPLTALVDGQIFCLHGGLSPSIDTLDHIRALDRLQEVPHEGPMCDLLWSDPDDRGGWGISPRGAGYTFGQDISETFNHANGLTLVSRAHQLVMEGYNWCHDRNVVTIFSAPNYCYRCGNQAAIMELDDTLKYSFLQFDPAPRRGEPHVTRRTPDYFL
UniProt P62140: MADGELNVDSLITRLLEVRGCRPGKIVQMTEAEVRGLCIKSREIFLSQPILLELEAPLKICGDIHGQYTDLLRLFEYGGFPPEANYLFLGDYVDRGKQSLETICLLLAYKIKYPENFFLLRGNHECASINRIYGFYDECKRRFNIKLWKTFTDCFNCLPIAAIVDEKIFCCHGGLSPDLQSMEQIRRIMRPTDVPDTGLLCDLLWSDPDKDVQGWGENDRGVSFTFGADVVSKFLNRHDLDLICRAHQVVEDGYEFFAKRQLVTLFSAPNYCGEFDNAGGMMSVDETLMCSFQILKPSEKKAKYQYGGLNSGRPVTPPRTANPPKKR

B1: PPM1G (endogenous, MDA-MB-231) (enzyme, UniProt O15355 1-546)
chain: MGAYLSQPNTVKCSGDGVGAPRLPLPYGFSAMQGWRVSMEDAHNCIPELDSETAMFSVYDGHGGEEVALYCAKYLPDIIKDQKAYKEGKLQKALEDAFLAIDAKLTTEEVIKELAQIAGRPTEDEDEKEKVADEDDVDNEEAALLHEEATMTIEELLTRYGQNCHKGPPHSKSGGGTGEEPGSQGLNGEAGPEDSTRETPSQENGPTAKAYTGFSSNSERGTEAGQVGEPGIPTGEAGPSCSSASDKLPRVAKSKFFEDSEDESDEAEEEEEDSEECSEEEDGYSSEEAENEEDEDDTEEAEEDDEEEEEEMMVPGMEGKEEPGSDSGTTAVVALIRGKQLIVANAGDSRCVVSEAGKALDMSYDHKPEDEVELARIKNAGGKVTMDGRVNGGLNLSRAIGDHFYKRNKNLPPEEQMISALPDIKVLTLTDDHEFMVIACDGIWNVMSSQEVVDFIQSKISQRDENGELRLLSSIVEELLDQCLAPDTSGDGTGCDNMTCIIICFKPRNTAELQPESGKRKLEEVLSTEGAEENGNSDKKKKAKRD
B2: ANKRD52 (endogenous, MDA-MB-231) (protein, UniProt Q8NB46 1-1076)
chain: MGILSITDQPPLVQAIFSRDVEEVRSLLSQKENINVLDQERRTPLHAAAYVGDVPILQLLLMSGANVNAKDTLWLTPLHRAAASRNEKVLGLLLAHSADVNARDKLWQTPLHVAAANRATKCAEALAPLLSSLNVADRSGRSALHHAVHSGHLETVNLLLNKGASLNVCDKKERQPLHWAAFLGHLEVLKLLVARGADLGCKDRKGYGLLHTAAASGQIEVVKYLLRMGAEIDEPNAFGNTALHIACYLGQDAVAIELVNAGANVNQPNDKGFTPLHVAAVSTNGALCLELLVNNGADVNYQSKEGKSPLHMAAIHGRFTRSQILIQNGSEIDCADKFGNTPLHVAARYGHELLISTLMTNGADTARRGIHDMFPLHLAVLFGFSDCCRKLLSSGQLYSIVSSLSNEHVLSAGFDINTPDNLGRTCLHAAASGGNVECLNLLLSSGADLRRRDKFGRTPLHYAAANGSYQCAVTLVTAGAGVNEADCKGCSPLHYAAASDTYRRAEPHTPSSHDAEEDEPLKESRRKEAFFCLEFLLDNGADPSLRDRQGYTAVHYAAAYGNRQNLELLLEMSFNCLEDVESTIPVSPLHLAAYNGHCEALKTLAETLVNLDVRDHKGRTALFLATERGSTECVEVLTAHGASALIKERKRKWTPLHAAAASGHTDSLHLLIDSGERADITDVMDAYGQTPLMLAIMNGHVDCVHLLLEKGSTADAADLRGRTALHRGAVTGCEDCLAALLDHDAFVLCRDFKGRTPIHLASACGHTAVLRTLLQAALSTDPLDAGVDYSGYSPMHWASYTGHEDCLELLLEHSPFSYLEGNPFTPLHCAVINNQDSTTEMLLGALGAKIVNSRDAKGRTPLHAAAFADNVSGLRMLLQHQAEVNATDHTGRTALMTAAENGQTAAVEFLLYRGKADLTVLDENKNTALHLACSKGHEKCALMILAETQDLGLINATNSALQMPLHIAARNGLASVVQALLSHGATVLAVDEEGHTPALACAPNKDVADCLALILSTMKPFPPKDAVSPFSFSLLKNCSIAAAKTVGGCGALPHGASCPYSQERPGAIGLDGCYSE
B3: Ankyrin repeat domain 28 (endogenous, MDA-MB-231) (protein, UniProt O15084 1-1053)
chain: MAFLKLRDQPSLVQAIFNGDPDEVRALIFKKEDVNFQDNEKRTPLHAAAYLGDAEIIELLILSGARVNAKDSKWLTPLHRAVASCSEEAVQVLLKHSADVNARDKNWQTPLHIAAANKAVKCAEALVPLLSNVNVSDRAGRTALHHAAFSGHGEMVKLLLSRGANINAFDKKDRRAIHWAAYMGHIEVVKLLVSHGAEVTCKDKKSYTPLHAAASSGMISVVKYLLDLGVDMNEPNAYGNTPLHVACYNGQDVVVNELIDCGAIVNQKNEKGFTPLHFAAASTHGALCLELLVGNGADVNMKSKDGKTPLHMTALHGRFSRSQTIIQSGAVIDCEDKNGNTPLHIAARYGHELLINTLITSGADTAKRGIHGMFPLHLAALSGFSDCCRKLLSSGFDIDTPDDFGRTCLHAAAAGGNLECLNLLLNTGADFNKKDKFGRSPLHYAAANCNYQCLFALVGSGASVNDLDERGCTPLHYAATSDTDGKCLEYLLRNDANPGIRDKQGYNAVHYSAAYGHRLCLQLIASETPLDVLMETSGTDMLSDSDNRATISPLHLAAYHGHHQALEVLVQSLLDLDVRNSSGRTPLDLAAFKGHVECVDVLINQGASILVKDYILKRTPIHAAATNGHSECLRLLIGNAEPQNAVDIQDGNGQTPLMLSVLNGHTDCVYSLLNKGANVDAKDKWGRTALHRGAVTGHEECVDALLQHGAKCLLRDSRGRTPIHLSAACGHIGVLGALLQSAASMDANPATADNHGYTALHWACYNGHETCVELLLEQEVFQKTEGNAFSPLHCAVINDNEGAAEMLIDTLGASIVNATDSKGRTPLHAAAFTDHVECLQLLLSHNAQVNSVDSTGKTPLMMAAENGQTNTVEMLVSSASAELTLQDNSKNTALHLACSKGHETSALLILEKITDRNLINATNAALQTPLHVAARNGLTMVVQELLGKGASVLAVDENGYTPALACAPNKDVADCLALILATMMPVSSSSPLSSLTFNAINRYTNTSKTVSFEALPIMRNEPSSYCSFNNIGGEQEYLYTDVDELNDSDSETY
B4: PP6R1 (endogenous, MDA-MB-231) (protein, UniProt Q9UPN7 1-881)
chain: MFWKFDLHTSSHLDTLLEREDLSLPELLDEEDVLQECKVVNRKLLDFLLQPPHLQAMVAWVTQEPPDSGEERLRYKYPSVACEILTSDVPQINDALGADESLLNRLYGFLQSTGSLNPLLASFFSKVMGILINRKTDQLVSFLRKKDDFVDLLLQHIGTSAIMDLLLRLLTCVERPQLRQDVVNWLNEEKIVQRLIEQIHPSKDENQHSNASQSLCDIIRLSREQMIQVQDSPEPDQLLATLEKQETIEQLLSNMFEGEQSQSVIVSGIQVLLTLLEPRRPRSESVTVNSFFSSVDGQLELLAQGALESTVSSVGALHALRPRLSCFHQLLLEPPKLEPLQMTWGMLAPPLGNTRLHVVKLLASALSANDAALTHELLALDVPNTMLDLFFHYVFNNFLHAQVEGCVSTMLSLGPPPDSSPETPIQNPVVKHLLQQCRLVERILTSWEENDRVQCAGGPRKGYMGHLTRVAGALVQNTEKGPNAEQLRQLLKELPSEQQEQWEAFVSGPLAETNKKNMVDLVNTHHLHSSSDDEDDRLKEFNFPEEAVLQQAFMDFQMQRMTSAFIDHFGFNDEEFGEQEESVNAPFDKTANITFSLNADDENPNANLLEICYKDRIQQFDDDEEEEDEEEAQGSGESDGEDGAWQGSQLARGARLGQPPGVRSGGSTDSEDEEEEDEEEEEDEEGIGCAARGGATPLSYPSPGPQPPGPSWTATFDPVPTDAPTSPRVSGEEELHTGPPAPQGPLSVPQGLPTQSLASPPARDALQLRSQDPTPPSAPQEATEGSKVTEPSAPCQALVSIGDLQATFHGIRSAPSSSDSATRDPSTSVPASGAHQPPQTTEGEKSPEPLGLPQSQSAQALTPPPIPNGSAPEGPASPGSQ
B5: catalytic PP6 subunit (endogenous, MDA-MB-231) (enzyme, UniProt O00743 1-305)
chain: MAPLDLDKYVEIARLCKYLPENDLKRLCDYVCDLLLEESNVQPVSTPVTVCGDIHGQFYDLCELFRTGGQVPDTNYIFMGDFVDRGYYSLETFTYLLALKAKWPDRITLLRGNHESRQITQVYGFYDECQTKYGNANAWRYCTKVFDMLTVAALIDEQILCVHGGLSPDIKTLDQIRTIERNQEIPHKGAFCDLVWSDPEDVDTWAISPRGAGWLFGAKVTNEFVHINNLKLICRAHQLVHEGYKFMFDEKLVTVWSAPNYCYRCGNIASIMVFKDVNTREPKLFRAVPDSERVIPPRTTTPYFL

target: FLAG-Rab40c (stably expressed in MDA-MB-231 cells) (human) (UniProt Q96S21); assay: affinity purification with mass spectrometry

binding, binds:
PP2CA (endogenous, MDA-MB-231) (from UniProt P67775 1-309) (enzyme)
PP1CB (endogenous, MDA-MB-231) (from UniProt P62140 1-327) (enzyme)
B1
B2
B3
B4
B5
